Chains of the proteins cited; added tags and fusions are not shown.
UniProt P24385: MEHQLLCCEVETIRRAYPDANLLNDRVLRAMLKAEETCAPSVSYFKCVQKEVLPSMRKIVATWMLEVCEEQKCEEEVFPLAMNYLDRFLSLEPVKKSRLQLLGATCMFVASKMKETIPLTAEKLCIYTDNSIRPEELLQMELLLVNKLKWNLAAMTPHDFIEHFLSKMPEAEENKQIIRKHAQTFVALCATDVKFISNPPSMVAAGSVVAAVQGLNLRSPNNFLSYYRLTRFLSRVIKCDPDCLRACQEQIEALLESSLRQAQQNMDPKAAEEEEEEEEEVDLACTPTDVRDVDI

In article PMC10348911:

What was measured:
[1] = target: Myc-tagged cyclin D1, wild type (UniProt P24385); assay: co-IP; exogenous Co-IP: HEK293T or GC cells transfected for 48 h; IP lysis buffer 50 mM Tris-HCl pH 8.0, 150 mM NaCl, 10 mM KCl, 1.5 mM MgCl2, 0.5% NP-40, 10% glycerol, 1 mM EDTA; anti-Flag or anti-Myc antibody, Protein A/G magnetic beads overnight at 4 °C; immunoblot
[2] = target: T1, Flag-tagged USP13 (ubiquitin-specific protease 13), wild type (UniProt Q92995); assay: as above
T1 sequence: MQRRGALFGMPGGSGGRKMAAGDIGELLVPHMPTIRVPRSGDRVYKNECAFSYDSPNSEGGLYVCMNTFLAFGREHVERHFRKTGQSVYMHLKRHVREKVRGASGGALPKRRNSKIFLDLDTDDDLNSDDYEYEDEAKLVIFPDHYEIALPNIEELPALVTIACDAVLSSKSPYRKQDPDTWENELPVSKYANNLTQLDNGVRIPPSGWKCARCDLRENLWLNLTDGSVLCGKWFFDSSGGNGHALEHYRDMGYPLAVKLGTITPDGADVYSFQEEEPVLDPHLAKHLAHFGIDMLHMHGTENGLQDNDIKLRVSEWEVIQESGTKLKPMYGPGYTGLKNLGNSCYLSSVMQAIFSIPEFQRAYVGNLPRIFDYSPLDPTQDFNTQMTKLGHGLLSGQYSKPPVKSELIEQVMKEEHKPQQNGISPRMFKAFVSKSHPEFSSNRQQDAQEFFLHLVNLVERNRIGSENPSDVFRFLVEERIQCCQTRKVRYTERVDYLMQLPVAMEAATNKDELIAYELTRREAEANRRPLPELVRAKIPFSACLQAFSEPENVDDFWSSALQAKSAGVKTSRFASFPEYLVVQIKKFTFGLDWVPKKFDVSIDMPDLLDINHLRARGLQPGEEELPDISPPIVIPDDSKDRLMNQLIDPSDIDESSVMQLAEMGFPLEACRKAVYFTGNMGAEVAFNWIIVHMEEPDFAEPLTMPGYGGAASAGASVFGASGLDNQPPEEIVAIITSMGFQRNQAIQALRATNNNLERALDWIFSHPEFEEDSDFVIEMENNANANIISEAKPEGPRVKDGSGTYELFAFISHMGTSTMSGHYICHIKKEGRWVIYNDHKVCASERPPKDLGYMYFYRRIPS

binding [1] | binding [2] | Substance
no binding | – | Flag-tagged USP13 truncated mutant containing the USP domain (from UniProt Q92995) (domain or fragment)
– | no binding | cyclin D1 C-terminal deletion mutant (domain or fragment)

No constants are given. Whether binding was seen depends on the method and setting. In cells and extracts the contact can be indirect. For some assays here: Sequences can lack the tags named with a protein.
